The campaign covered roughly 320,000 compounds. About 22,000 (6.9%) were called active. Inconclusive means that the source gave no clear call. Such entries were picked first, then a sample of the others. Calls follow the shape of the dose curve; as a rule, active = well fitted inhibition curve with a large enough effect; inconclusive = small, poorly fitted or top-dose-only effect, or another doubt; inactive = no such curve, though single readings can be large or run the other way. Where the call is inconclusive, the potency comes from a doubtful curve fit.
assay: Primary qHTS for delayed death inhibitors of the malarial parasite plastid, 96 hour incubation; conditions: P. falciparum luciferase reporter growth; series mostly up to 28.7 µM
Summary of the method: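 96 h incubation, 37 C, 5% CO2, of luciferase-reporter P. falciparum-infected RBCs (2% hematocrit, 0.05% parasitemia final) with test compounds; endpoint luminescence.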
Potency is read from the fitted curve at half-maximal effect.

| SMILES | Potency |
| --- | --- |
| CCn1cc(C(=O)N2CCCC(N3CCN(c4ccccc4C)CC3)C2)cn1 (stereo unspecified) | inconclusive: 18.5 µM [inhibitor, single point] |
| Cc1ccc(OCC(=O)Oc2c(C)cccc2C)cc1C | inactive |
| Cc1csc(CNc2ncnc3ccc(-c4cccc(Cl)c4)cc23)c1 | active: 2.33 µM |
| Cc1oc(-c2ccccc2)nc1CS(=O)CC(=O)NC1CCCC1 (stereo unspecified) | inconclusive: 2.94 µM [inhibitor, partial curve, poor fit] |
| Cc1c(Cl)c(C(F)(F)F)nn1CC(=O)NCc1ccco1 | inconclusive: 18.5 µM [inhibitor, single point] |
| CC1(C)OC(C)(C)/C(=C/Nc2ccccc2)C1=O | inactive |
| Cc1cc(OCCn2cc(/C(N)=N/O)c3ccccc32)ccc1Cl | inconclusive: 10.4 µM [inhibitor, single point] |
| Cc1cc(C)c2c(N)c(C(=O)N/N=C/c3ccccc3)sc2n1 | inactive |
| CN1CCCC1CCNc1ccc2oc3ccccc3c(=O)c2c1 (stereo unspecified) | inactive |
| O=C(CSC1=NCCS1)Nc1cccc2ccccc12 | inactive |
| O=c1c2cc(NC(=S)NCCCN3CCC(Cc4ccccc4)CC3)ccc2nc2n1CCCCC2 | inconclusive: 7.38 µM [inhibitor, partial curve] |
| CCOC(=O)C1=C(CSc2nc(-c3ccccc3)ccc2C#N)OC(N)=C(C#N)C1c1cccnc1 (stereo unspecified) | inconclusive: 14.7 µM [inhibitor, partial curve, poor fit] |
| Cc1oc2c(c1C(=O)Nc1cccc3ccccc13)CCCC2 | inconclusive: 20.8 µM [inhibitor, partial curve, poor fit] |
| Oc1ccc(-c2csc(Nc3ncccn3)n2)cc1 | active: 4.15 µM |
| CC(C)CC1Nc2ccc(C(=O)NCCCN3CCCCC3C)cc2NC1=O (stereo unspecified) | inactive |
| COC(=O)C1=C(c2cccc(OCc3ccccc3)c2)C[C@@H]2CC[C@H]1N2C(=O)NCc1cccc(C(F)(F)F)c1 | inconclusive: 8.28 µM [inhibitor, single point] |
| O=C(OCC(=O)N1CCCC1)c1cccc(Br)c1 | inactive |
| CCOc1ccc(OCC)c(NC(=O)CN2CCC(NC(=O)c3cccc(F)c3)CC2)c1 | inconclusive: 18.5 µM [inhibitor, single point] |
| O=C(Nc1nc2n(n1)C(c1ccc(Cl)cc1)CC(c1ccc(Cl)cc1)N2)c1ccco1 (stereo unspecified) | inconclusive: 14.7 µM [inhibitor, single point] |
| O=C1NC(=O)N(c2ccccc2F)C(=O)/C1=C/c1cn(CC(=O)N2CCOCC2)c2ccccc12 | inconclusive: 14.7 µM [inhibitor, single point] |
| CC(=O)Nc1ccc(-c2csc(NC(=O)C3CCN(S(=O)(=O)c4cccs4)CC3)n2)cc1 | inconclusive: 1.47 µM [inhibitor, partial curve, poor fit] |
| CC1CCC(NC(=O)CC(C)(C)Cc2nc3ccccc3c(=O)[nH]2)CC1 (stereo unspecified) | inconclusive: 0.0033 µM [inhibitor, full curve, poor fit] |
| Cc1cccc(C)c1Oc1nc(-c2ccccc2)ncc1S(=O)(=O)c1ccccc1 | inconclusive: 5.86 µM [inhibitor, partial curve] |
| COc1ccc(NC(=O)CN(C)C(C)C(=O)NC(=O)NC2CCCCC2)cc1 (stereo unspecified) | inconclusive: 18.5 µM [inhibitor, single point] |

In the list so far, two contain two or more sulfur atoms:

| SMILES | Potency |
| --- | --- |
| O=C(CSC1=NCCS1)Nc1cccc2ccccc12 | inactive |
| CC(=O)Nc1ccc(-c2csc(NC(=O)C3CCN(S(=O)(=O)c4cccs4)CC3)n2)cc1 | inconclusive: 1.47 µM [inhibitor, partial curve, poor fit] |

Following part:

| SMILES | Potency |
| --- | --- |
| Cc1ccc(C(O)P(=O)(OC(C)C)c2ccc(N(C)C)cc2)cc1 (stereo unspecified) | inactive |
| Cc1cc(C)cc(NC(=S)N2CCN(c3ccccn3)CC2)c1 | inactive |
| COc1cccc(CCNS(=O)(=O)CCNC(=O)c2cccc(OC)c2)c1 | inactive |
| COc1ccccc1NC(=O)c1ccc(NC(=O)CN2C(=O)CN(C)C2=O)cc1 | inconclusive: 3.7 µM [inhibitor, partial curve, poor fit] |
| O=C(c1ccccc1)N1CCN(CC(O)COC2CCCCC2)CC1 (stereo unspecified) | inactive |
| COCCCn1c(-c2ccc(S(=O)(=O)N3CCOCC3)cc2)csc1=Nc1ccccc1 | inconclusive: 3.29 µM [inhibitor, full curve, poor fit] |
| CCOc1cc(C)ccc1OCc1nnc(SCC(=O)c2cccc([N+](=O)[O-])c2)n1C | active: 11.7 µM |
| COc1cc(/C=N/NC(=S)NCC2CCCO2)cc(OC)c1OC (stereo unspecified) | inconclusive: 18.5 µM [inhibitor, single point] |
| CC1CC1C(=O)Nc1ccc(-c2ccccc2)cc1 (stereo unspecified) | active: 13.1 µM |
| Nc1nnnn1/N=C/C(Br)=C/c1ccccc1 | inactive |
| O=C(/C=C/c1ccccc1)NC(NC(=S)Nc1cccc(Cl)c1)C(Cl)(Cl)Cl (stereo unspecified) | inconclusive: 3.29 µM [inhibitor, partial curve, poor fit] |
| O=C1/C(=C/c2ccccc2O)SC(=S)N1Cc1cccnc1 | inactive |
| Cc1c(C=O)c2ccccn2c1C(=O)c1cccc([N+](=O)[O-])c1 | inconclusive: 11.7 µM [inhibitor, single point] |
| CC(C)CSc1nc2ccccc2[nH]1 | inactive |
| Cc1ccc(S(=O)(=O)N2CCOCC2)cc1C(=O)N1CCCCCC1 | inconclusive: 18.5 µM [inhibitor, single point] |
| CC(=O)N1CCc2cc(S(=O)(=O)CCC(=O)N(C)c3cc(C)ccc3C)ccc21 | inconclusive: 14.7 µM [inhibitor, single point] |
| N#CC1=C(N)NC(SCc2ccccc2)=C(C#N)C12CCCC2 | inconclusive: 10.4 µM [inhibitor, single point] |
| Cc1ccc(S(=O)(=O)Nc2cc(C(=O)NCCN(C)C)ccc2N2CCCCC2)cc1 | inconclusive: 16.5 µM [inhibitor, partial curve] |
| CC1(C(=O)Nc2nnc(C(C)(C)C)s2)Cc2ccccc2C(=O)O1 (stereo unspecified) | inconclusive: 0.0029 µM [inhibitor, full curve, poor fit] |
| CCOC(=O)NC(=O)C(=CNc1cccc(C)c1)C(=O)NC(=O)OCC | inconclusive: 16.5 µM [inhibitor, single point] |
| COc1ccc(CCNc2ncnc3c2[nH]c2cc(OC)c(OC)cc23)cc1OC | active: 1.85 µM |
| CC(C)(C)c1cc(-c2nc(N)nc(N)n2)c(O)c(C(C)(C)C)c1 | inconclusive: 18.5 µM [inhibitor, single point] |
| Cc1c(C(c2ccc([N+](=O)[O-])cc2)c2c(C)n(C)n(-c3ccccc3)c2=O)c(=O)n(-c2ccccc2)n1C | inconclusive: 18.5 µM [inhibitor, single point] |
| CCn1c([N+](=O)[O-])nc2c1c(=O)[nH]c(=O)n2C | inconclusive: 18.5 µM [inhibitor, single point] |

| SMILES | Potency |
| --- | --- |
| CCCc1nc2ccccc2c(C(=O)OC(C)C(=O)NCc2ccc3c(c2)OCO3)c1CC (stereo unspecified) | inconclusive: 4.65 µM [inhibitor, partial curve, poor fit] |
| CC(=O)OC1CN2CCC1CC2 (stereo unspecified) | active: 4.78 µM |
| Cc1nn(Cc2ccc(Cl)cc2Cl)c(C)c1NC(=O)c1nc2n(n1)C(C(F)F)CC(C)N2 (stereo unspecified) | inconclusive: 11.7 µM [inhibitor, partial curve, poor fit] |
| O=C(Cn1cccc1)Nc1ccc(F)cc1F | inconclusive: 18.5 µM [inhibitor, single point] |
| CCC(=O)c1cn(/C(=C\C(=O)OC(C)(C)C)CCC(OC)OC)cc1CC | inconclusive: 13.1 µM [inhibitor, single point] |
| O=C(CSc1c2c(nc3ccccc13)CCCC2)NCc1ccco1 | inactive |
| CCc1ccc(NC(=S)N(CCCN2CCN(C)CC2)Cc2cccs2)cc1 | inconclusive: 13.1 µM [inhibitor, single point] |
| O=C(c1cc(-c2ccncc2)nc2c(Cl)cccc12)N1CCN(c2ccccc2F)CC1 | inconclusive: 18.5 µM [inhibitor, single point] |
| COc1cc(C(=O)NCc2ccccn2)ccc1OCc1c(C)noc1C | inconclusive: 0.0033 µM [inhibitor, full curve, poor fit] |
| O=C(CNC(=O)c1ccco1)OCc1ccc(Br)cc1 | inconclusive: 11.7 µM [inhibitor, single point] |
| O=C(CCNS(=O)(=O)c1ccc2[nH]c(=O)oc2c1)Nc1ccccc1 | inactive |
| CSc1ccccc1NC(=O)c1cc(-c2ccco2)on1 | inactive |
| COc1ccc(N2CCN(C(=O)NCc3ccc(OC)c(OC)c3)CC2)cc1 | inactive |
| Nc1ccc(O)c([N+](=O)[O-])c1 | inconclusive: 3.7 µM [inhibitor, single point] |
| CCNc1c(NS(=O)(=O)c2ccc(OC)cc2)c(=O)oc2ccccc12 | inconclusive: 5.22 µM [inhibitor, single point] |
| CC(=O)/C=C/c1ccc2ccccc2n1 | inconclusive: 2.94 µM [inhibitor, partial curve] |
| COc1ccc2c(c1)c(/C=N/Nc1nc3ccccc3[nH]1)c(C)n2C | active: 1.65 µM |
| Cc1ccc(C(=O)N(CC(=O)NC2CCCC2)Cc2cccs2)s1 | active: 1.47 µM |
| CS(=O)(=O)N1CCC(C(=O)Nc2ccc(Oc3ccccc3)cc2)CC1 | inactive |
| CS(=O)(=O)N1CCN(c2cnn(-c3ccccc3)c(=O)c2Cl)CC1 | inactive |
| CCOC(=O)[C@H]1[C@H]2COc3ccc(OC)cc3[C@@H]2N2C(=O)CN(Cc3ccc(Cl)cc3)C(=O)[C@@]12C | inconclusive: 1.65 µM [inhibitor, partial curve, poor fit] |
| COc1cc(NC(=O)C/C(C)=N/NC(=O)Cc2ccccc2)c(OC)cc1Cl | inactive |
| COc1ccccc1NC(=O)C(=O)NCc1ccccc1Cl | inactive |

Arranged by heavy-atom count (ascending): part of the list above

| SMILES | Potency |
| --- | --- |
| O=C(CNC(=O)c1ccco1)OCc1ccc(Br)cc1 | inconclusive: 11.7 µM [inhibitor, single point] |
| CSc1ccccc1NC(=O)c1cc(-c2ccco2)on1 | inactive |
| Cc1nn(Cc2ccc(Cl)cc2Cl)c(C)c1NC(=O)c1nc2n(n1)C(C(F)F)CC(C)N2 (stereo unspecified) | inconclusive: 11.7 µM [inhibitor, partial curve, poor fit] |

— PubChem BioAssay AID504834 (National Center for Advancing Translational Sciences (NCATS), 2011)
